PubChem BioAssay AID504786 – Drosophila RNAi Screening Center | 2011

- Purpose: 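Knock-downs reducing HIF reporter induction by the iron chelator DFO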 (primary screen)
- Cell system: Drosophila S2 cells with a stable HIF luciferase reporter
- Reagent: long dsRNA against Drosophila genes, about 0.2 µg dsRNA per well of a 384-well plate
- Duration: three days of knock-down, then 20 h of DFO before reading
- Challenge: desferrioxamine (DFO) at 100 µM, an iron chelator that mimics hypoxia, for 20 h
- Detection: 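Firefly luciferase driven by the mouse ldh-a hypoxia-response element, measured after 20 h of 100 µM DFO; z-scores per plate, higher means more signal lost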
- Scale: z-score: higher = stronger loss of HIF reporter signal
The deposit covers about 21,000 reagents; below is an unselected part of those that have a named target and a result. 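Primary screen; positive scores mean lost reporter signal, so the sign may be inverted from the usual convention.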 A plus sign joins genes that one reagent is predicted to hit. Not all columns of the deposit are shown.

z-score, replicate 1, by gene and reagent
CG46339: DRSC14136 -0.3
Ntmt (N-terminal methyltransferase): DRSC06624 -0.2
CG32793: DRSC18145 -0.3; DRSC18194 -0.4
RpS27 (Ribosomal protein S27): DRSC14244 5.1
Tina-1 (Troponin C-akin-1): DRSC04317 -0.3
CG9123: DRSC20156 -0.2
CG3437: DRSC10366 -0.3
CG15029 (retired record): DRSC19610 -0.3
Jhbp5 (Juvenile hormone binding protein 5): DRSC14240 -0.2
CG11123: DRSC06040 -0.2
Es2: DRSC18663 -0.3
btd (buttonhead): DRSC18747 -0.3
CG13984: DRSC02316 0
MESR6 (Misexpression suppressor of ras 6): DRSC10720 -0.2
Ugt301D1 (UDP-glycosyltransferase family 301 member D1): DRSC02021 -0.3
Alg1 (ALG1, chitobiosyldiphosphodolichol beta-mannosyltransferase): DRSC15297 -0.2
Bsg (Basigin): DRSC01010 -0.3; DRSC01011 -1.4
Spn47C (Serpin 47C): DRSC07030 -0.2
hng2 (hinge2): DRSC16412 -0.2
LRR (Leucine-rich repeat): DRSC06444 -0.2
CG16779: DRSC15153 -0.2
CG10694: DRSC14263 -0.3
Sym (Symplekin): DRSC12301 2.4
CG12343: DRSC06135 -0.3
Npc1a (Niemann-Pick type C-1a): DRSC03378 -0.3
CG32262: DRSC08165 -0.2
Cpr64Ac (Cuticular protein 64Ac): DRSC08462 -0.3
CG10324: DRSC14230 -0.2

Reformatted: entries from further up.
| gene | DRSC id | z-score, replicate 1 |
| --- | --- | --- |
| CG32262 | DRSC08165 | -0.2 |
| Cpr64Ac (Cuticular protein 64Ac) | DRSC08462 | -0.3 |
| CG10324 | DRSC14230 | -0.2 |

Additional records:
z-score, replicate 1, by gene and reagent
CG13674: DRSC10033 -0.4
CG11635 + spaw: DRSC06075 -0.4
Gr98d (Gustatory receptor 98d): DRSC14571 -0.1
CG6607: DRSC16073 0.1
BORCS5 (BLOC-1 related complex subunit 5): DRSC19427 -0.2
CG12477: DRSC09886 -0.1
Gapdh1 (Glyceraldehyde 3 phosphate dehydrogenase 1): DRSC07433 -0.4
mRpL21 (mitochondrial ribosomal protein L21): DRSC11100 0.9
PGS1 (Phosphatidylglycerophosphate synthase 1): DRSC16304 -1.1
Eglp1 (Entomoglyceroporin 1): DRSC04502 -0.2
CG34199: DRSC05867 0.4
PH4alphaSG2 (prolyl-4-hydroxylase-alpha SG2): DRSC15037 -0.5
CG11581: DRSC19407 -0.2
Nrx-IV (Neurexin IV): DRSC11238 -0.2
YL-1: DRSC02765 -0.2
CG5355: DRSC02844 -0.1
CG5013: DRSC15695 -0.5
CG13384: DRSC02258 -0.3
msl-1 (male-specific lethal 1): DRSC03573 0.5
CG3065: DRSC04333 -0.2
CG43901: DRSC19397 -0.3; DRSC19652 -0.3
Hr39 (Hormone receptor-like in 39): DRSC03346 -0.2
CG32606 (retired record): DRSC19001 6.4; DRSC19371 -0.3; DRSC19372 -0.3; DRSC19373 -0.4
